Measured values from patent US10188617B2, “Modulation of cellular DNA repair activity to intercept malignancy” (THE BOARD OF TRUSTEES OF THE LELAND STANFORD JUNIOR …, priority 2013, dated 2019).
Structures can show the parent of a compound that is named as a salt. The name of at least one read-out is uncertain.

Test system: BER of ODD in SUM149PT cells
Assay: High-throughput chemical screen with cell-based DNA repair assay (oxidatively damaged GFP reporter, host-cell reactivation);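 note: SUM149PT cells pretreated 24 h with compound, then given photodynamically oxidized adenoviral GFP reporter, 24 h host-cell reactivation, GFP read as repair, undamaged reporter positive and damaged reporter negative control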
Details: % BER activity relative to negative control at high concentration, imaging

SMILES: C[C@@]12C(=O)OC(=O)[C@]1(C)[C@H]1CC[C@@H]2O1 [Cantharidin]
- % BER (High) (image analysis): 21.06%

SMILES: CN(C)CCOC(=O)COc1ccc(Cl)cc1 [Centrophenoxine hydrochloride]
- % BER (High) (image analysis): 13.4%
